These are yes or no findings as the source states them, for the method shown. A result given as binding can be weak or reduced; the word gives no strength.
Target: TGM domain 2 (Heligmosomoides polygyrus)
Assay: NMR titration

binding: binds
B1: TβRI ectodomain (receptor, UniProt P36897 34-126)
chain: LQCFCHLCTKDNFTCVTDGLCFVSVTETTDKVIHNSMCIAEIDLIPRDRPFVCAPSSKTGSVTTTYCCNQDHCNKIELPTTVKSSPGLGPVEL
